Laboratory results from patent publication US20070249022A1.
Results are given in words; binding and its absence hold for the method and conditions named. Some binding calls cover weakened binding; strength is not graded here.

Chains of the proteins cited; added tags and fusions are not shown. Lines headed by an entry give the natural chain unless they say otherwise; changes in a name come on top.
UniProt P27037: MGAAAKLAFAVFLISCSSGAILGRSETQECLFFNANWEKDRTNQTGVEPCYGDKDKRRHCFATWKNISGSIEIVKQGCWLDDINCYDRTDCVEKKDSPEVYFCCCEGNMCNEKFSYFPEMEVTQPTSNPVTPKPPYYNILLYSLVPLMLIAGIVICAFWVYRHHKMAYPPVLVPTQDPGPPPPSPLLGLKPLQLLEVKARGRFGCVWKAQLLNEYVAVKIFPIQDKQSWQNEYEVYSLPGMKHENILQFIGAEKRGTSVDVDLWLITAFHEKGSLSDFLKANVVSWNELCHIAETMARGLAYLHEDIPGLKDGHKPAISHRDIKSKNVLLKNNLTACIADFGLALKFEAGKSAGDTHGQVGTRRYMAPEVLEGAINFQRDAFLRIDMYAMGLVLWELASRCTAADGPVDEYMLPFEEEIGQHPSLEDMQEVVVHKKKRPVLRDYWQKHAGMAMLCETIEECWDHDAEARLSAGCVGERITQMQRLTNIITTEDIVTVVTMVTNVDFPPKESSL

Biological target: T1, GDF-11 (UniProt O95390)
T1 sequence (looked up): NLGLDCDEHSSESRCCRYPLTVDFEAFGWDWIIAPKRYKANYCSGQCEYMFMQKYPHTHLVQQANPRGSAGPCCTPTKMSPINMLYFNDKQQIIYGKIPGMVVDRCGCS
Assay: Biacore SPR, GDF-11 amine-coupled on CM5 chip

binding: binds
Substance: ActRIIa-mFc (from UniProt P27037 21-135) (Fc fusion)
